No constants are given. Whether binding was seen depends on the method and setting. Binding seen in cells or lysates may run through a third protein. Some results given as binding are weak or reduced against the parent protein; the word gives no strength.

By UniProt entry, the sequences of proteins in these tests, tags left out.
UniProt Q60598: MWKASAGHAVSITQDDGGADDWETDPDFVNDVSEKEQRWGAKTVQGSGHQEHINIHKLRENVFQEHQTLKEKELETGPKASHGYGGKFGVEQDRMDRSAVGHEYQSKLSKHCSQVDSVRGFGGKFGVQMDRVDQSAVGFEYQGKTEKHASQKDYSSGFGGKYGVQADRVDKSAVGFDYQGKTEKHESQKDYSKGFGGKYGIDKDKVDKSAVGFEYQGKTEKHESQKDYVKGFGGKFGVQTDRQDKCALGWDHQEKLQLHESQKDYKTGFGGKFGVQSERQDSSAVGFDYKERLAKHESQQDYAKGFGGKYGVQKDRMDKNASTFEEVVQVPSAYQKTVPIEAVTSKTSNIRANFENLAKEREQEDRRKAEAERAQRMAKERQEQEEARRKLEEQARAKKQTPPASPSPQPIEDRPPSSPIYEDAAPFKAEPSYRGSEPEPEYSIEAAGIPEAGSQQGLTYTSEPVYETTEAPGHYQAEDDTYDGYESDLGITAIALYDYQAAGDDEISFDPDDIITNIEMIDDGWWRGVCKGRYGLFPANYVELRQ

The experiment concerns the target cortactin, endogenous (mouse (endogenous in primary hippocampal neurons)) (UniProt Q60598). Kind of experiment: co-IP; synaptosome extracts of DIV14 mouse primary hippocampal neurons immunoprecipitated with anti-cortactin, Western blot; neurons under mock, DHPG-LTD, DHPG-LTD + ionomycin or DHPG-LTD + EGTA; also FMRP depletion (Supplementary Fig. S6D) and CK2 inhibition (data not shown). (In general: Immunoblotting shows a protein as a band on a membrane.)

B1: drebrin, endogenous (protein, UniProt Q9QXS6 1-706)
chain: MAGVSFSGHRLELLAAYEEVIREESAADWALYTYEDGSDDLKLAASGEGGLQELSGHFENQKVMYGFCSVKDSQAALPKYVLINWVGEDVPDARKCACASHVAKVAEFFQGVDVIVNASSVEDIDAGAIGQRLSNGLARLSSPVLHRLRLREDENAEPVGTTYQKTDAAVEMKRINREQFWEQAKKEEELRKEEERKKALDARLRFEQERMEQERQEQEERERRYREREQQIEEHRRKQQSLEAEEAKRRLKEQSIFGDQRDEEEESQMKKSESEVEEAAAIIAQRPDNPREFFRQQERVASASGGSCDAPAPAPFNHRPGRPYCPFIKASDSGPSSSSSSSSSPPRTPFPYITCHRTPNLSSSLPCSHLDSHRRMAPTPIPTRSPSDSSTASTPIAEQIERALDEVTSSQPPPPPPPPPPTQEAQETTPSLDEELSKEAKVTAAPEVWAGCAAEPPQAQEPPLLQSSPLEDSMCTESPEQAALAAPAEPAASVTSVADVHAADTIETTTATTDTTIANNVTPAAASLIDLWPGNGEEASTLQAEPRVPTPPSGAEASLAEVPLLNEAAQEPLPPVGEGCANLLNFDELPEPPATFCDPEEEVGETLAASQVLTMPSALEEVDQVLEQELEPEPHLLTNGETTQKEGTQASEGYFSQSQEEEFAQSEEPCAKVPPPVFYNKPPEIDITCWDADPVPEEEEGFEGGD
In the case of B1, the binding result is recorded as “binds”.

(Values after paper PMC11737055.)
